The target in the experiment is T1, MBP-Par-3 PDZ1-APM (Drosophila melanogaster) (UniProt O96782).
T1 sequence: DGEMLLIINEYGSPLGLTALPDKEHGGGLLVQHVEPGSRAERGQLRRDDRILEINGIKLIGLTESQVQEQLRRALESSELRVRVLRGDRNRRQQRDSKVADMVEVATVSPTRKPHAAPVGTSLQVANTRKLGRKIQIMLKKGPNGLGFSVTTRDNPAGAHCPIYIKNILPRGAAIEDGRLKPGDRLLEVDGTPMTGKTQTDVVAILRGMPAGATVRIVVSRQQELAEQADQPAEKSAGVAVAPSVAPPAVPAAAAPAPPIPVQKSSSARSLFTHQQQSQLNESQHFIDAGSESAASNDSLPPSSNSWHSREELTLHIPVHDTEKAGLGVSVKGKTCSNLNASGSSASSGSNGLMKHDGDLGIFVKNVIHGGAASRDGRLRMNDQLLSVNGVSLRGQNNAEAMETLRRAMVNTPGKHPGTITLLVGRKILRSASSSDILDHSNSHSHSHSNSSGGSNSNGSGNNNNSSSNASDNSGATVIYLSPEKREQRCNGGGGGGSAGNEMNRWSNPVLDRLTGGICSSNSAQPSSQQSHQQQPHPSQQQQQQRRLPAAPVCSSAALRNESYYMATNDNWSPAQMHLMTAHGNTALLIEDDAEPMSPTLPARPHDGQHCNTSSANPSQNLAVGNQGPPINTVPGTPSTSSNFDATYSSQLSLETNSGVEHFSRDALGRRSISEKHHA
The experiment is described as follows: pull-down; MBP-Par-3 PDZ1-APM on amylose resin (from bacterial lysate, washed 4x); soluble purified proteins added, 10 min at room temperature; 20 mM Hepes pH 7.5, 100 mM NaCl, 5 mM MgCl2, 0.5% Tween-20, 1 mM DTT, 200 uM ATP; Coomassie-stained gel; both purified.

The chains behind the UniProt entries cited, without tags or fusion partners. Where a name states a change or a piece, a line headed by the entry shows the natural chain unless it says otherwise.
UniProt P40793: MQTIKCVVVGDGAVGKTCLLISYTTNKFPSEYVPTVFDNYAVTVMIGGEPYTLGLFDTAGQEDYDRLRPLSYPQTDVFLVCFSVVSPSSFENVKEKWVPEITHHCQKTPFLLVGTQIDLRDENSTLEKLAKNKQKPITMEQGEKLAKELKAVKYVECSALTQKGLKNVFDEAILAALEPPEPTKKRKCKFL

These are yes or no findings as the source states them, for the method shown. Sequences can lack the tags named with a protein.

Regarding “His-Cdc42^Q61L (from UniProt P40793 1-191)”, the binding result is recorded as “no binding”.

Source of the values: paper PMC9793311.
